Experimental data reported in patent US20070015240A1.
These are yes or no findings as the source states them, for the method shown. Some results given as binding are weak or reduced against the parent protein; the word gives no strength.

Biological target: T1, Subtilase JP170 (Bacillus sp. JP170)
T1 sequence: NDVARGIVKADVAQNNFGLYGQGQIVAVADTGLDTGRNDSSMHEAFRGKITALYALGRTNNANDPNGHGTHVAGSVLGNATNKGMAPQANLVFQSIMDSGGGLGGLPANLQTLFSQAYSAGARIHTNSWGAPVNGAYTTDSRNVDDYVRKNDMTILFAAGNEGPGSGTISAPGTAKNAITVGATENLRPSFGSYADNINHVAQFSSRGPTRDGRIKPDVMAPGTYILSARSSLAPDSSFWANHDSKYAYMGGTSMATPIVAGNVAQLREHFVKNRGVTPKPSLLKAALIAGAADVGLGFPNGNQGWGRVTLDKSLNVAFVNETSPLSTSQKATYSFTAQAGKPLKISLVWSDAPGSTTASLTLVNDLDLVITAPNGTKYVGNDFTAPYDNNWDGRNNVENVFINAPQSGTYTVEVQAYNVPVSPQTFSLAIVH
Assay: X-ray crystal structure of the complex

B1: CI2 inhibitor (protein, UniProt P01053 2-84, looked up)
chain: SSVEKKPEGVNTGAGDRHNLKTEWPELVGKSVEEAKKVILQDKPEAQIIVLPVGTIVTMEYRIDRVRLFVDKLDNIAQVPRVG
**Q.** For B1, which binding is on record?
**A.** binds
